Reference: publication PMC6240287
Results are given in words; binding and its absence hold for the method and conditions named. In cells and extracts the contact can be indirect. Some binding calls cover weakened binding; strength is not graded here.

By UniProt entry, the sequences of proteins in these tests, tags left out.
UniProt P35222: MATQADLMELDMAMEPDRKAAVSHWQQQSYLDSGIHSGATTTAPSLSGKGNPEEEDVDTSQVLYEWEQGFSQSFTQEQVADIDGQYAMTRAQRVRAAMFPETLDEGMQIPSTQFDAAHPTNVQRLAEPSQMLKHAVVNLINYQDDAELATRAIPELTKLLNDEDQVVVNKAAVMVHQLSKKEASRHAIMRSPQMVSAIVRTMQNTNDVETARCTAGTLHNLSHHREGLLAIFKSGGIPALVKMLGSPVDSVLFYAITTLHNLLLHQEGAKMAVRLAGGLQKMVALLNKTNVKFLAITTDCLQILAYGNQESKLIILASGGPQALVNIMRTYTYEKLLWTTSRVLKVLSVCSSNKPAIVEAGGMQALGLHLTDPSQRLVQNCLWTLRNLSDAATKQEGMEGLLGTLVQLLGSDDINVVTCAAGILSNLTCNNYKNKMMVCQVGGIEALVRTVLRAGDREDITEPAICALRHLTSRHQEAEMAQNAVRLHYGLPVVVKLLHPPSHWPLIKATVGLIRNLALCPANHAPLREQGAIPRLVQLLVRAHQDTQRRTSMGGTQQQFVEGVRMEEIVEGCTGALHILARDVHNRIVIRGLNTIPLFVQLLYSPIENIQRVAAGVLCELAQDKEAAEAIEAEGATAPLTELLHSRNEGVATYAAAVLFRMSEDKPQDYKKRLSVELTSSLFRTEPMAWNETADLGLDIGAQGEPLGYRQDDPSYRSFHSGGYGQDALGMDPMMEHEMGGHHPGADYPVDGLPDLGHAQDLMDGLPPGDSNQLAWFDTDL

Target: β-catenin (UniProt P35222)
Test: co-IP; RKO cells pre-treated with the GSK3 inhibitor CHIR99021 (6 μM, 24 h); which protein was precipitated is not told

binding: binds
B1: Tob1 (protein, UniProt P50616 1-345)
chain: MQLEIQVALNFIISYLYNKLPRRRVNIFGEELERLLKKKYEGHWYPEKPYKGSGFRCIHIGEKVDPVIEQASKESGLDIDDVRGNLPQDLSVWIDPFEVSYQIGEKGPVKVLYVDDNNENGCELDKEIKNSFNPEAQVFMPISDPASSVSSSPSPPFGHSAAVSPTFMPRSTQPLTFTTATFAATKFGSTKMKNSGRSNKVARTSPINLGLNVNDLLKQKAISSSMHSLYGLGLGSQQQPQQQQQPAQPPPPPPPPQQQQQQKTSALSPNAKEFIFPNMQGQGSSTNGMFPGDSPLNLSPLQYSNAFDVFAAYGGLNEKSFVDGLNFSLNNMQYSNQQFQPVMAN
